# Measured values reported in patent US9724366B2, “CD11 B[low] macrophages and conditioned media thereof for treating cancer and/or fibrosis” (CARMEL-HAIFA UNIVRSITY ECONOMIC CORPORATION LTD., priority 2012, dated 2017).
# At least one structure is not confirmed: it was looked up by name or label, or the drawing left a doubt.
# Assays:
# [1] = test system: peritonitis-affected mice; test: Murine zymosan A peritonitis, RvD1, RvE1 or Dex introduced into the peritoneum; type: in vivo
# Experimental: Male C57BL/6 mice (6-8 wk) were injected intraperitionealy (I.P) with zymosan A (1 mg). 66 hours post zymosan A injection, the mice were euthanized by CO2, their peritoneal cavity was lavaged with 5 ml of phosphate buffered saline (PBS) and the peritoneal exudates were collected by centrifugation for further analysis and experimentation.
# Peritoneal exudates were collected and exudate cells were stained with FITC-conjugated rat anti-mouse Ly-6G, PE-conjugated rat anti-mouse F4/80, and PerCP-conjugated rat anti-mouse CD11b (Biolegend) and analyzed by FACSCalibur (Beckton-Dickinson). Macrophages were isolated using EasySep PE selection magnetic beads following the manufacturer's instructions (StemCell Technologies).
# In some experiments, the macrophages were sorted to CD11b^high and CD11b^low populations of >95% purity, using FACSaria (Beckton-Dickinson), and the separate populations were used for microscopic analysis and for ex vivo stimulation. In some experiments, PKH2-PCL green (0.25 mM, 0.5 mL) was injected I.P at 48 h and peritoneal cells were recovered 4 h later, immunostained for F4/80 and CD11b as above and analyzed for fluorescence intensity of different macrophage populations. In relevant experiments, vehicle, RvD1, RvE1 (100 ng/mouse each), or Dex (25 mg/mouse) were introduced to the peritoneum 48 h after peritonitis initiation, and the exudates were recovered after 66 h and analyzed as before.
# Exudate cells or sorted CD11b^high and CD11b^low macrophages were stained with Hoechst, and enumerated under a fluorescent microscope (Zeiss). Two areas of two cover slips, each containing at least 50 (overall 200) macrophages were analyzed, and the average number of PMN engulfed per macrophage as well as the number of macrophages with cutoff numbers of engulfed PMN, were calculated.
# Similar properties were attributed to glucocorticoids, such as dexamethasone (Dex), that inhibit leukocyte infiltration to inflammation sites and promote the clearance of apoptotic PMN by macrophages. To determine whether pro-resolving mediators regulate emergence of CD11b^low macrophages and thereby promote resolution, RvD1, RvE1, or Dex were introduced into peritonitis-affected mice, and the recovered leukocytes were collected and analyzed for macrophage and neutrophil numbers, macrophage CD11b expression, engulfment of PMN, and responsiveness to LPS. The results are presented in FIG. 8 of Schif-Zuck et al., 2011, which is incorporated herein by reference. […] To determine whether RvD1, RvE1, and Dex regulate apoptotic PMN engulfment by macrophages during resolution, exudate cells were enumerated for PMN engulfment and analyzed as in FIG. 2.
# macrophages = test: Cytokine secretion (ELISA) of macrophages from treated mice, unstimulated or activated with LPS; type: cell-based; details: unstimulated and LPS-stimulated macrophages
# Experimental: Exudate macrophages were sorted or separated using PE selection magnetic beads (StemCell Technologies) and incubated (1×10^6 cells in 0.5 mL of culture media) with LPS (0-1000 ng/mL), poly (I:C) (4 μg/mL), or CpG-ODN (1 μM). After 16 h, the supernatants were collected and their TNF-α, IL-β, IL-10, TGFβ, CCL2, CCL3, and CCL5 contents were determined by standard ELISA.
# To validate the improvement in immune-silencing of macrophages that followed treatment with RvD1, RvE1 and Dex, macrophages were activated with LPS, and cytokine secretion was determined. […] Thus, treatment with RvD1, RvE1, and Dex, promoted macrophage immune-silencing, as well as the secretion of pro-resolving cytokines from these cells.
# [2] = test system: macrophages recovered from peritoneal exudates; test: Ex vivo macrophage switch to the CD11b^low phenotype by pro-resolving lipid mediators (flow cytometry); type: cell-based, mice; details: mediators 50 nM, Dex 25 μg/ml
# Experimental: FIG. 8 show promotion of macrophage switch to the CD11b^low phenotype by pro-resolving lipid mediators. Macrophages were recovered from peritoneal exudates 72 hrs post peritonitis initiation and incubated overnight with vehicle (RPMI 10% FBS+0.05% ethanol), RvD1, RvD2, PD1, LXB4, or 15-epi-LXA4, (all at 50 nM), apoptotic cells (M/N ratio of 1:5), or Dex (25 μg/ml). Then, the cells were stained for CD11b and analyzed by flow cytometry, and the percentage of CD11b^low (A) and CD11b^high (B) macrophages was determined. Results are mean±SE of two experiments (n=2). #P<0.005, $ P<0.01, * P<0.05 compared to vehicle.
# Macrophages were recovered from peritoneal exudates 72 hrs post peritonitis initiation and incubated overnight with either RPMI 10% FBS+0.05% ethanol, the resolvins RvD1 or RvD2, […] PD1 or lipoxins LXB4, or 15-epi-LXA4, (all at 50 nM), apoptotic cells (M/N ratio of 1:5), or Dex (25 μg/ml). After 20 hours, the cells were stained for CD11b and analyzed by flow cytometry.
smiles,measurement,setting,value
"C[C@@H]1C[C@H]2[C@@H]3CCC4=CC(=O)C=C[C@]4(C)[C@@]3(F)[C@@H](O)C[C@]2(C)[C@@]1(O)C(=O)CO [Dex, dexamethasone]",CD11b expression on CD11b^high macrophages,"[1]; mouse, in vivo",but not
same,appearance in the peritoneum of low-engulfing macrophages (less than 2 N/M),"[1]; mouse, in vivo",induced
same,number of macrophages in peritoneal cavities,"[1]; mouse, in vivo",reduced
same,neutrophil numbers,[1]; peritoneal exudates,induced a reduction
same,secretion of TNFα,macrophages,to a lesser extent
same,macrophage switch to the CD11b^low phenotype,[2],promotes macrophage switch
